From the supplement of paper PMC6411743
± gives the standard deviation of the averaged measurements. The list shows a part of the results, in another mix than the full data.

Chains of the proteins cited; added tags and fusions are not shown. Lines headed by an entry give the natural chain unless they say otherwise; changes in a name come on top.
UniProt P51956: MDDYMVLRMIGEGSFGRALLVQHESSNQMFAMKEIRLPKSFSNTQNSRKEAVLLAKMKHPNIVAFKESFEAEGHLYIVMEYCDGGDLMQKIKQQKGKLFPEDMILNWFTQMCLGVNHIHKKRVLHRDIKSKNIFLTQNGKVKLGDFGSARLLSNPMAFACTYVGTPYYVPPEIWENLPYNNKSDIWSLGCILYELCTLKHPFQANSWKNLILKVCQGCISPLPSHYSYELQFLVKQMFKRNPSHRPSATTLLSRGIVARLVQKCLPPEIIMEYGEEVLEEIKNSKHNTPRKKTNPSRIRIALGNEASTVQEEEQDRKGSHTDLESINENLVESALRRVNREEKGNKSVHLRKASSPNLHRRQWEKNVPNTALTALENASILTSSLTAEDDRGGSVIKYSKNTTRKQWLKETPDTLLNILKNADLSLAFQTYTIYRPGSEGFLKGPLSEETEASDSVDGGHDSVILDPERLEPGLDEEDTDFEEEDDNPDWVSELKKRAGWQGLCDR
UniProt Q6UXD5: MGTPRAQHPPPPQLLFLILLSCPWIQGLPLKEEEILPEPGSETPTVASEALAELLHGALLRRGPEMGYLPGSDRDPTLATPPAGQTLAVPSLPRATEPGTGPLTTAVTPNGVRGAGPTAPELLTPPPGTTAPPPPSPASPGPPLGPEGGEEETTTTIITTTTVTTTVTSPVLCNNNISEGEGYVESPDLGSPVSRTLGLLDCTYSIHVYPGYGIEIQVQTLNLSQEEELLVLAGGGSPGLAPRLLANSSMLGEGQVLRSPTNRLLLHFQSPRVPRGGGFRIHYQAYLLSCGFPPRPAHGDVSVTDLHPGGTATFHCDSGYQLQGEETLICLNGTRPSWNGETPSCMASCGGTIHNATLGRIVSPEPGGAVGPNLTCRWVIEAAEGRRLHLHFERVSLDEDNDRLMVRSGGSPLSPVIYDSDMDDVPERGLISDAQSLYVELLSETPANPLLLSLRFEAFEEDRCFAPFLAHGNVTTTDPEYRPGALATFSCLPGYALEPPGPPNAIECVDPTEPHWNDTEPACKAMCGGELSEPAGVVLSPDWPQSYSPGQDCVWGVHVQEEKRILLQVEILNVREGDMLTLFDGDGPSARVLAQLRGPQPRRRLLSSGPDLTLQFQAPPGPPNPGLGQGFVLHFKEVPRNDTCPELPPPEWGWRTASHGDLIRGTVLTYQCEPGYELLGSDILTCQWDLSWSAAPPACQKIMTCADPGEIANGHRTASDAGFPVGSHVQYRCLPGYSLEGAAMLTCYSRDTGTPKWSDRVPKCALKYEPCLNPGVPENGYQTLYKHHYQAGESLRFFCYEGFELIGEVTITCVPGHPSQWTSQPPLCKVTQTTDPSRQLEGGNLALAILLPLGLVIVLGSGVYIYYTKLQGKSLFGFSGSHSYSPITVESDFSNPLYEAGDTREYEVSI
UniProt Q14242: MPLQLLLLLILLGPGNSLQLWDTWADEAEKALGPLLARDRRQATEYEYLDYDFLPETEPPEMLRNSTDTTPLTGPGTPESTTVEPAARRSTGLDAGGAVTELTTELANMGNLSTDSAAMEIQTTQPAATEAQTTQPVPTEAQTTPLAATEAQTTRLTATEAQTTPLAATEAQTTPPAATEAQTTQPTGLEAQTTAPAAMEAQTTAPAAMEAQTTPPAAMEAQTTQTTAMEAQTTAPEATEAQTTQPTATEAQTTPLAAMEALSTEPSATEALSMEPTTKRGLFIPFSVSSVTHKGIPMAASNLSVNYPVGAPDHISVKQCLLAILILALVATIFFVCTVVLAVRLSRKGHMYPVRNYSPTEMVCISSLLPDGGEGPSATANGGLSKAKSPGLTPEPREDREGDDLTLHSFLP
UniProt Q2M2I8: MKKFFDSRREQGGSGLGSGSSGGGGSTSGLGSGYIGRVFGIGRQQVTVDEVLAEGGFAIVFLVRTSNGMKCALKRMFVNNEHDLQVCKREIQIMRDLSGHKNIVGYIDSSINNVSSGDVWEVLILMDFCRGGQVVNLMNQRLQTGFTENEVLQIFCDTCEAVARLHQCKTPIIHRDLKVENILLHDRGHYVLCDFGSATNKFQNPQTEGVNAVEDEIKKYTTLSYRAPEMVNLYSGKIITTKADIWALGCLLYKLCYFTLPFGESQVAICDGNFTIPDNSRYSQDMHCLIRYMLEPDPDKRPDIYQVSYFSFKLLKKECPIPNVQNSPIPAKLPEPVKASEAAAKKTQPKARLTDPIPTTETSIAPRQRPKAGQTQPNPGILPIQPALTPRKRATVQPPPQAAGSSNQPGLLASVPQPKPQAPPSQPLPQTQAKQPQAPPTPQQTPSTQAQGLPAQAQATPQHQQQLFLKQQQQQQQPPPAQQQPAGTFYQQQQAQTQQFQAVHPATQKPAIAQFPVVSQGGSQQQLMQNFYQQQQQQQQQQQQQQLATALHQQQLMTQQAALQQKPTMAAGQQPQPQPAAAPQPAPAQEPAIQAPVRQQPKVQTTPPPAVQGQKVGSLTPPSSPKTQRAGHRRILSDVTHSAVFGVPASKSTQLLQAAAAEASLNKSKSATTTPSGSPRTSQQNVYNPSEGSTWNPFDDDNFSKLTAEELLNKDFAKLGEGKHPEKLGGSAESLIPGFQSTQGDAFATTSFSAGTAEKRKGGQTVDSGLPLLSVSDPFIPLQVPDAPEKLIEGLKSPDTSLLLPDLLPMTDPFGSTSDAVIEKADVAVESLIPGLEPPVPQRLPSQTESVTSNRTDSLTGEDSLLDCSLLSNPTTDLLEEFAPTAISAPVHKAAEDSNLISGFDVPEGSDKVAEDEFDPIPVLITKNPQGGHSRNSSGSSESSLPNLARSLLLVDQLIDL
UniProt Q13617, whole entry: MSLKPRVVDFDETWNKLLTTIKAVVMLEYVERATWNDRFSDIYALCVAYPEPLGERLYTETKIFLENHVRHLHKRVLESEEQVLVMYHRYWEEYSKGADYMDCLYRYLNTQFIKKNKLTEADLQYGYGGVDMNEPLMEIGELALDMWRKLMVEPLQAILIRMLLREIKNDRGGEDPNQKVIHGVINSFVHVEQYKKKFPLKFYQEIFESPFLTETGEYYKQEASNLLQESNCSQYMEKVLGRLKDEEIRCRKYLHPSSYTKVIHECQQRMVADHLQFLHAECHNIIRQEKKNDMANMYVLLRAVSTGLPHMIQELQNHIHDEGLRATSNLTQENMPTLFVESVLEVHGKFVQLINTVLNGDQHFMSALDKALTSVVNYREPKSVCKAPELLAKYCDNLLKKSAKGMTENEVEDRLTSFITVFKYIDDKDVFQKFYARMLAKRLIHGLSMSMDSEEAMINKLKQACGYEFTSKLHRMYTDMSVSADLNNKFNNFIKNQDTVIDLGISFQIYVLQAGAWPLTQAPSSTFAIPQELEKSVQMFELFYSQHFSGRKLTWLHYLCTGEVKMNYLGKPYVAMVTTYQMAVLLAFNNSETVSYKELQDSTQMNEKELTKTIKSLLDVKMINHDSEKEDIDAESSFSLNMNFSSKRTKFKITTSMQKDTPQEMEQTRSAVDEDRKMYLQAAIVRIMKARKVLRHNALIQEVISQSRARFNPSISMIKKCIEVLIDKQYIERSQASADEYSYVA
UniProt O75352: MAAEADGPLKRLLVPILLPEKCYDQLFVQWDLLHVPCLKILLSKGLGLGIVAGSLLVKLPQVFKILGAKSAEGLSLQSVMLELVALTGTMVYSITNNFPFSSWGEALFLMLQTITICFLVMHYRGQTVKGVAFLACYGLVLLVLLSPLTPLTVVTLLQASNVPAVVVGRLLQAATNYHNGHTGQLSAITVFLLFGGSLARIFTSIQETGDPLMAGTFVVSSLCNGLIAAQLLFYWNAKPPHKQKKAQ
UniProt Q9P2T1: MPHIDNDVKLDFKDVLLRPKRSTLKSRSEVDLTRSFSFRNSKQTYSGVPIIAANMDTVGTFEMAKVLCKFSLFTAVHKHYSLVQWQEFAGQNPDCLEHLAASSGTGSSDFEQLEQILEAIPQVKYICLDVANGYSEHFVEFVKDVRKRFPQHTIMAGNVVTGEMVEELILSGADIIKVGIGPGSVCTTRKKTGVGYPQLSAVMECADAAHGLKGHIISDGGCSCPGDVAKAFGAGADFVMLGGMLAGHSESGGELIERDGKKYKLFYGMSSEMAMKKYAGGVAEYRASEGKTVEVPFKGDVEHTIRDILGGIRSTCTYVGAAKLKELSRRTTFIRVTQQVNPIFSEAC
UniProt O75448: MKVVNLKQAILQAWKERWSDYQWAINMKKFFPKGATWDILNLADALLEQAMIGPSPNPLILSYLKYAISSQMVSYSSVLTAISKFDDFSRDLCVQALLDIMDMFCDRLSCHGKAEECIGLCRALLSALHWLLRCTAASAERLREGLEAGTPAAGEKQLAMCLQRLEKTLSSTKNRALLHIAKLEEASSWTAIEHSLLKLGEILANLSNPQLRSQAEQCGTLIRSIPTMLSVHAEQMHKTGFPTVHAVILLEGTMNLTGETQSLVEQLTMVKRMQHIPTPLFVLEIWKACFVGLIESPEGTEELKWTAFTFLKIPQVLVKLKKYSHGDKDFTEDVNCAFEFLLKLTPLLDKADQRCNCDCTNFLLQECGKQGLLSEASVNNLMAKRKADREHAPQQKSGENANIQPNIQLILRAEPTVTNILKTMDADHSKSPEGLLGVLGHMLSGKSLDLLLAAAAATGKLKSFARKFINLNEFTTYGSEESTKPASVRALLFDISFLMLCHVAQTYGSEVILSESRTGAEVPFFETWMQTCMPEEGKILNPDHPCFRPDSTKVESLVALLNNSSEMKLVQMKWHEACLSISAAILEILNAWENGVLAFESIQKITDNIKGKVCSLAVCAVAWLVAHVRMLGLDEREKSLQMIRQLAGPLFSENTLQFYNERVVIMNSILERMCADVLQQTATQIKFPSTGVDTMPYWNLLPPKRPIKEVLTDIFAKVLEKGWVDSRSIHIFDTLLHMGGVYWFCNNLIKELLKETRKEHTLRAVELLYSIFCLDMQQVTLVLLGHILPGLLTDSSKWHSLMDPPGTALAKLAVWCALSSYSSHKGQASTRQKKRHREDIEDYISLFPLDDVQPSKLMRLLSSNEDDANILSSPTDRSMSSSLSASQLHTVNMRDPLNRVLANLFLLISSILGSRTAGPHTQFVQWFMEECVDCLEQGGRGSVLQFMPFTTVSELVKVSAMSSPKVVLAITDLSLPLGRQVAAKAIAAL
UniProt P49459, whole entry: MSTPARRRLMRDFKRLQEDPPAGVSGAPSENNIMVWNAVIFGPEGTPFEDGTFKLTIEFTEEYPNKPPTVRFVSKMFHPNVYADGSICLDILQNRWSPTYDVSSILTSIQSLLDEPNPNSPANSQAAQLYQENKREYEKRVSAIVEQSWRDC
UniProt Q13555: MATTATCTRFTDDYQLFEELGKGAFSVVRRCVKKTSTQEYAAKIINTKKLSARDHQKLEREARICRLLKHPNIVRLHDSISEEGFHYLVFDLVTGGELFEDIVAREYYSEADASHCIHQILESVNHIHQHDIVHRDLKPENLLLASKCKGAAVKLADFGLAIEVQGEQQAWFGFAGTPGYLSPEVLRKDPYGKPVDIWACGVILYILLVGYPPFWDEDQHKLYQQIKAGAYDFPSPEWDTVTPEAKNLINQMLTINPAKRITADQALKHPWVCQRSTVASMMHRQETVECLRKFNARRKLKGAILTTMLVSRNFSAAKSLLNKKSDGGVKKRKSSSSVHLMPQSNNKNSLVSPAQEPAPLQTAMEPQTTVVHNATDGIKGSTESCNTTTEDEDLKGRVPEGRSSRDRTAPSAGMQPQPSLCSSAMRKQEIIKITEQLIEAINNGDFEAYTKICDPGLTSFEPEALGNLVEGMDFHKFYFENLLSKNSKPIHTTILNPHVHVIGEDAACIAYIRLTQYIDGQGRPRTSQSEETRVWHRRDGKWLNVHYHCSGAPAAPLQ
UniProt Q9UL33, whole entry: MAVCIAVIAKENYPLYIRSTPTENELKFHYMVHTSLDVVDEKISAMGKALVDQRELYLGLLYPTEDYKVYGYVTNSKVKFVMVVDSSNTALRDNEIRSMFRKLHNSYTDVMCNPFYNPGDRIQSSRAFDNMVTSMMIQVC
UniProt Q9NVV0: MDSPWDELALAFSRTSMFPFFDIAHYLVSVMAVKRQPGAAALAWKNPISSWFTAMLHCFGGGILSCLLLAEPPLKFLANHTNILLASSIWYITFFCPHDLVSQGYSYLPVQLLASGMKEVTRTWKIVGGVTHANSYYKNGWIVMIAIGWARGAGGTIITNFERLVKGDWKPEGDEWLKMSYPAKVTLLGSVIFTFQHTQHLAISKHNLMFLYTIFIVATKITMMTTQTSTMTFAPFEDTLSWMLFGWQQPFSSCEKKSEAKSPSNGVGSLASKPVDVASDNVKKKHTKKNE
UniProt Q8IXQ4: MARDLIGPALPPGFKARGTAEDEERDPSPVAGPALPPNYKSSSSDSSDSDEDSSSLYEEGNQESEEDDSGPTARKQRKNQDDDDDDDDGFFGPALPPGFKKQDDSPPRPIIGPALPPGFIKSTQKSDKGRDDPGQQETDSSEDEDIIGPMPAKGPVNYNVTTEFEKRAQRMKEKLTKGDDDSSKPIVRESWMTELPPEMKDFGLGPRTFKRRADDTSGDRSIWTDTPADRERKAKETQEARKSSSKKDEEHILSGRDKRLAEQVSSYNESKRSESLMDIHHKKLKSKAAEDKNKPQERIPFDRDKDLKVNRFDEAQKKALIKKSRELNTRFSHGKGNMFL

Compound: Nc1ncnc2c1ncn2[C@@H]1O[C@H](COP(=O)(O)OP(=O)(O)OP(=O)(O)O)[C@@H](O)[C@H]1O [adenosine triphosphate]
Assay: NP40-soluble protein abundance relative to vehicle (solubility fold change) (ratio); higher = more soluble protein in presence of ATP
Summary of the method: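 Crude Jurkat lysate, prepared by Dounce homogenisation, was exposed to eight concentrations from 0.1 to 10 mM for 10 min at room temperature and then 3 min at 37 °C. Solubilisation used 0.8% NP40 with benzonase for 60 min at 4 °C, followed by ultracentrifugation and TMT labelling of the supernatant for LC-MS/MS. After vsn normalisation of intensities, each value is the fold change against the detergent-processed vehicle within each replicate, across three independent experiments.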

Target	NP40-soluble protein abundance (concentration: 1mM)	NP40-soluble protein abundance (concentration: 2mM)	NP40-soluble protein abundance (concentration: 4mM)	NP40-soluble protein abundance (concentration: 6mM)	NP40-soluble protein abundance (concentration: 8mM)	NP40-soluble protein abundance (concentration: 10mM)
A0A0D9SF53|A0A0D9SFB3|A0A0D9SG12|O00571 (UniProt O00571)	1.12 ± 0.035	1.16 ± 0.031	1.23 ± 0.014	1.38 ± 0.051	1.51 ± 0.059	1.53 ± 0.094
A0A087X1L0|Q9NS73 and related entries (UniProt Q9NS73)	1.23 ± 0.2	1.09 ± 0.25	1.2 ± 0.15	1.09 ± 0.28	1.18 ± 0.23	1.21 ± 0.2
A0A087WY58|P51956 and related entries (UniProt P51956)	0.944 ± 0.14	0.9985 ± 0.0021	0.999 ± 0.067	0.956 ± 0.059	0.988 ± 0.054	0.984 ± 0.036
A0A087WYL5|Q6UXD5-3|Q6UXD5-5|Q6UXD5-6 (UniProt Q6UXD5)	0.907 ± 0.056	0.871 ± 0.12	0.9 ± 0.028	0.884 ± 0.067	0.951 ± 0.018	0.939 ± 0.065
A0A0A0MTS7|Q8WZ42-12 (UniProt Q8WZ42)	0.936 ± 0.055	0.954 ± 0.054	0.935 ± 0.039	0.917 ± 0.052	0.962 ± 0.022	0.994 ± 0.039
A0A087WU73|A0A087X287|B0QY83 and related entries (UniProt Q969V6)	0.909 ± 0.023	0.957 ± 0.13	1.03 ± 0.11	0.948 ± 0.15	0.939 ± 0.042	0.924 ± 0.13
A0A0C4DFY0|Q14242 and related entries (UniProt Q14242)	0.833 ± 0.13	0.764 ± 0.1	0.894 ± 0.092	0.903 ± 0.096	0.843 ± 0.12	0.77 ± 0.072
A0A096LP25|Q2M2I8 and related entries (UniProt Q2M2I8)	1.01 ± 0.023	1.02 ± 0.013	1.016 ± 0.0055	1.01 ± 0.017	0.997 ± 0.011	1 ± 0.013
A0A0A0MQX8|C9JP00 and related entries (UniProt Q9NR56)	0.929 ± 0.095	0.995 ± 0.023	0.941 ± 0.045	1.04 ± 0.055	0.94 ± 0.044	0.9449 ± 0.0073
A0A0A0MTN0|Q13617 and related entries (UniProt Q13617)	1.02 ± 0.13	0.985 ± 0.089	0.965 ± 0.085	0.918 ± 0.12	0.99 ± 0.057	0.952 ± 0.041
A0A087WTJ2|Q8WWP7 (UniProt Q8WWP7)	1.02 ± 0.056	1.02 ± 0.048	1.01 ± 0.042	0.96 ± 0.12	1.01 ± 0.049	0.996 ± 0.044
A0A087WV81|I3L295 and related entries (UniProt Q9H3L2+O75352+Q1HDL3+J3QS48+I3L1D2+J3QW43+J3QRD5+J3KT75+I3L295)	0.943 ± 0.01	0.938 ± 0.014	0.9687 ± 0.0094	0.975 ± 0.072	0.9303 ± 0.0046	0.879 ± 0.024
A0A087X0Q9|Q9BVL4 (UniProt Q9BVL4)	0.985 ± 0.047	0.994 ± 0.025	0.985 ± 0.029	0.993 ± 0.061	1.02 ± 0.028	1.004 ± 0.0078
A0A087WWM4|F8WAN9 and related entries (UniProt Q9P2T1)	0.969 ± 0.042	0.949 ± 0.035	0.925 ± 0.048	0.9235 ± 0.007	0.938 ± 0.028	0.938 ± 0.05
A0A0B4J1W0|F5GY88 and related entries (UniProt O75448)	1.08 ± 0.025	1.027 ± 0.0038	1.01 ± 0.019	0.993 ± 0.092	1.09 ± 0.067	1.04 ± 0.074
A0A087WVP4|A0A087X1R1|P53814 and related entries (UniProt P53814)	1.01 ± 0.11	1.03 ± 0.2	1.09 ± 0.13	1.05 ± 0.032	0.999 ± 0.089	1.16 ± 0.064
A0A087WT30|Q8N5I9 (UniProt Q8N5I9)	1.22 ± 0.17	1.19 ± 0.1	1.15 ± 0.036	1.09 ± 0.081	1.06 ± 0.041	1.06 ± 0.056
A0A0D9SG71|P49459 (UniProt P49459)	1.07 ± 0.04	1.03 ± 0.074	1.04 ± 0.084	1.01 ± 0.048	1.04 ± 0.067	1.04 ± 0.07
A0A087X243|P09211 (UniProt P09211)	0.983 ± 0.054	0.95 ± 0.017	0.899 ± 0.021	0.887 ± 0.052	0.954 ± 0.053	0.94 ± 0.048
A0A0A0MS52|Q13555-2|Q13555-8|Q13555-9 (UniProt Q13555)	1.02 ± 0.034	1.02 ± 0.031	1.07 ± 0.012	1.11 ± 0.038	1.09 ± 0.057	1.06 ± 0.043
A0A0A0MTR2|Q8N543 (UniProt Q8N543)	1.02 ± 0.09	0.991 ± 0.084	0.982 ± 0.083	0.971 ± 0.11	1.01 ± 0.051	0.972 ± 0.084
A0A0B4J294|H3BP13 and related entries (UniProt Q9UL33)	0.96 ± 0.024	0.969 ± 0.055	0.964 ± 0.04	0.979 ± 0.073	0.94 ± 0.048	0.946 ± 0.032
A0A0A0MTJ9|A0A0R4J2G3|Q6PIU2 and related entries (UniProt Q6PIU2)	0.998 ± 0.025	1.04 ± 0.031	1.01 ± 0.02	1 ± 0.076	0.951 ± 0.043	1 ± 0.057
A0A0D9SFE4|A0A0D9SFB1|A0A0U1RQP1|Q05193 and related entries (UniProt Q05193)	0.978 ± 0.029	0.971 ± 0.029	0.969 ± 0.057	0.958 ± 0.048	0.988 ± 0.014	0.976 ± 0.03
A0A0B4J2F8|A6NFM0 and related entries (UniProt Q9GZM3+Q9H1A7+P52435+F6S314+E2QRJ6+A6NFM0)	0.9602 ± 0.0028	0.992 ± 0.047	1.03 ± 0.073	1.02 ± 0.045	0.94 ± 0.053	0.941 ± 0.075
A0A0A0MQU4|Q96I15 (UniProt Q96I15)	0.9864 ± 0.0094	0.966 ± 0.017	0.992 ± 0.052	0.972 ± 0.024	0.988 ± 0.018	1.01 ± 0.039
A0A087X020|Q9Y3A5 (UniProt Q9Y3A5)	0.998 ± 0.056	0.998 ± 0.05	1.02 ± 0.025	0.986 ± 0.071	1.02 ± 0.021	1.01 ± 0.026
A0A0A0MRS4|Q9NVV0 (UniProt Q9NVV0)	1.05 ± 0.059	1.02 ± 0.0023	1.01 ± 0.02	1 ± 0.059	1.021 ± 0.0047	1.011 ± 0.0058
A0A0A0MRI1|Q8IXQ4 (UniProt Q8IXQ4)	0.964 ± 0.081	0.954 ± 0.05	0.9765 ± 0.008	1.01 ± 0.048	0.941 ± 0.019	0.951 ± 0.03

Fetched one by one from the entries so far (2):
Target	NP40-soluble protein abundance (concentration: 1mM)	NP40-soluble protein abundance (concentration: 2mM)	NP40-soluble protein abundance (concentration: 4mM)	NP40-soluble protein abundance (concentration: 6mM)	NP40-soluble protein abundance (concentration: 8mM)	NP40-soluble protein abundance (concentration: 10mM)
A0A0A0MTN0|Q13617 and related entries (UniProt Q13617)	1.02 ± 0.13	0.985 ± 0.089	0.965 ± 0.085	0.918 ± 0.12	0.99 ± 0.057	0.952 ± 0.041
A0A0A0MRI1|Q8IXQ4 (UniProt Q8IXQ4)	0.964 ± 0.081	0.954 ± 0.05	0.9765 ± 0.008	1.01 ± 0.048	0.941 ± 0.019	0.951 ± 0.03
